In patent publication US7807654B2, “Compositions and methods for treatment of mitochondrial diseases” (Wellstat Therapeutics Corporation, priority 1998, dated 2010):
For at least one compound, name, drawing or mass did not settle the structure.

Columns and labels:
[1] = system: 3NP treated mice; assay: 3NP model with TAU, creatine or coenzyme Q10: rotarod; type: in vivo, CD-1 mice
Procedure: (§1) Retired male CD-1 mice, 7-9 months of age, (Strain: Cr:NIH (S); Source: NCI) weighing 30-40 g were housed singly throughout the study. The animals were kept on a 12-hour light/dark cycle, with food and water continuously available. The animals were acclimated to our facility for seven days before experimentation. The mice were randomly assigned treatment groups.
(§2) The mice were given 3NP at a dose of 40, 40, 50, 50, 60 and 60 mg/kg i.p. on days 1-6 and 50 mg/kg i.p. on days […] was made up at 4, 5 or 6.0 mg/ml in sterile water (pH to 7.4 with 1.0 NaOH) and 0.1 ml/10 g BW was given (i.p) to each mouse at 3-4 PM.
(§3) The dosing of TAU (Nagase & Co., Ltd., Chemicals Second Division, 5-1, Nihonbashi-Kobunacho, Chuo-Ku, Tokyo 103, Japan; Lot 103 H 0060) was mixed into the rodent chow at 6% weight/weight. Creatine (Sigma) was mixed into the chow at 2% (weight/weight) that is previously reported to be the optimal dose (Matthews, Yang et al. 1998). Coenzyme Q10 (Sigma) was also provided in the chow at a dose 200 mg/kg chow) previously shown to be effective (Matthews, Yang et al. 1998).
(§4) Mice were housed in separate plastic cages in the same room in which the behavioral observation was preformed. The behavioral observation was performed between 9:00 AM and 1:00 PM.
The Rotarod apparatus (San Diego Instruments, San Diego, Calif.) was used to measure fore- and hindlimb motor coordination and balance. Mice received rotarod training until they were able to stay on the rotarod at 5 (experiment 1) or 10 (experiment 2) RPM for the cutoff time of 600 seconds. […] During the training period, each mouse was placed on the rotarod. The latency to fall off the rotarod within this time period was recorded. Mice received two training runs each day for 4 consecutive days. After training, mice performed 2 baseline tests that were averaged.
(§5) Data were analyzed by one- or two-way ANOVA followed by comparison of treatments by the Tukey test. Data are represented as mean±SEM.

[2] = system: 3NP treated mice; assay: 3-nitropropionic acid (3NP) model of Huntington's disease; type: in vivo, Swiss mice
Procedure: Male 6-8 month old Swiss mice (National Cancer Institute; NCI, Frederick, Md.) were treated with 3NP (65 mg/kg i.p.) daily for 4 days to induce mortality, neuronal cell loss and behavioral impairment with n=8/group. […] On day 9, the mice were perfuse fixed with 10% buffered formalin and processed for silver staining to detect neuronal damage. […] There was no mortality in the 3NP+TAU group, but 3 of 8 mice died in the vehicle+3NP group.
Behavioral scoring of the 3NP treated mice was to determine whether there was any motor impairment at anytime during the study. There were 88% of the control+3NP treated mice with behavioral impairment indicated by gross observation. A decreased incidence of impairment of only 50% was found in the TAU+3NP treated mice.
The silver staining was analyzed by a pathologist blinded to the identity of tissue samples. […] However, in the control+3NP treated mice, silver staining of synaptic terminals in the striatal area (caudate/putamen area) and substantia nigra was pronounced. Silver impregnation of axons and/or synaptic terminals in the thalamus, deep mesencephalon and/or reticular formation (medulla) was also found in […] of the control+3NP treated mice. The substantia nigra projects to the striatum and these areas are especially vulnerable to damage by 3NP. The damage to the substantia nigra and striatum was prevented by TAU.

[3] = system: 3NP treated mice; assay: 3NP model with TAU, creatine or coenzyme Q10: mortality and body weight; type: in vivo, CD-1 mice
Procedure: as §1
The mice were given 3NP at a dose of 40, 40, 50, 50, 60 and 60 mg/kg i.p. on days 1-6 and 50 mg/kg i.p. on days 5-12.
as §2, §3
• n=9-12/group • Vehicle+Vehicle • Vehicle+3NP • TAU+3NP • Creatine+3NP • TAU and Creatine+Vehicle
• (n=8-10/group) • Vehicle+Vehicle • Vehicle+3NP • TAU+3NP • Coenzyme Q10+3NP • TAU and Coenzyme Q10+Vehicle
• (n=8-10/group) • Vehicle+Vehicle • Vehicle+3NP • 8% TAU+Vehicle • 2% TAU+3NP • 4% TAU+3NP • 8% TAU+3NP
as §5

[4] = system: 3NP treated mice; assay: 3NP model with TAU, creatine or coenzyme Q10: locomotor activity; type: in vivo, CD-1 mice
Procedure: as §1, §2, §3, §4
The Photobeam Activity System (San Diego Instruments, San Diego, Calif.) was used to measure spontaneous activity. This system includes infrared beams in a rectangular configuration with a second level of beams to identify rodents rearing up. The activity system counts each time that the infrared beam path is broken. Spontaneous activity was quantified by placing mice in the Photobeam Activity System for a period of 30 min. The mice were acclimated once to the activity test and 2 baseline tests were performed to obtain an averaged baseline activity.
as §5

[5] = system: mice infused with sodium azide; assay: Subcutaneous azide infusion: mortality, body weight, TUNEL staining; type: in vivo, C57/BL/6N mice; details: 6% TAU in the chow (FIG. 13)

CC(=O)OC[C@H]1O[C@@H](n2ccc(=O)[nH]c2=O)[C@H](OC(C)=O)[C@@H]1OC(C)=O [TAU, triacetyluridine]
impairment of rotarod performance at 5 RPM due to 3NP ([1]; experiment 1 (FIG. 10)): prevented significant impairment
impairment in rotarod performance at 10 RPM due 3NP treatment ([1]; experiment 2 (FIG. 11)): attenuated
impairment in rotarod performance at 10 RPM due 3NP treatment ([1]; experiment 3 (FIG. 12), TAU at all doses (2, 4, 8%)): attenuated
mortality due to 3NP ([2]; 3NP 65 mg/kg i.p. daily for 4 days, TAU 4 g/kg bw p.o. b.i.d., n=8/group): no mortality
neuronal damage by silver staining (striatal area, substantia nigra) ([2]; day 9, blinded pathologist): no clear signs of neuronal damage
loss of body weight due to 3NP ([3]; experiment 1 (FIG. 4)): attenuated (not significant p<0.05)
loss in body weight due to 3NP ([3]; experiment 2 (FIG. 5)): attenuated
mortality due to 3NP, increasing doses of TAU ([3]; experiment 3 (FIG. 3), 2, 4, 8% TAU in chow): dose-dependently decreased mortality
mortality due to 3NP treatment ([3]; experiments 1 and 2 (FIGS. 1 and 2), 6% TAU, 2% creatine, coenzyme Q10 200 mg/kg chow): decreased mortality
decrease in activity due 3NP treatment ([4]; experiment 1 (FIG. 7)): not attenuated
decrease in activity due 3NP treatment ([4]; experiment 2 (FIG. 8)): attenuated
decrease in activity due 3NP treatment ([4]; experiment 3 (FIG. 9), 2% TAU): not
decrease in activity due 3NP treatment ([4]; experiment 3 (FIG. 9), 4% TAU, p=0.05): attenuated
decrease in activity due 3NP treatment ([4]; experiment 3 (FIG. 9), 8% TAU): attenuated
mortality due to subcutaneous infusion of azide [5]: significantly reduced mortality
